Measurements reported in PubChem BioAssay AID743454 (Peter MacCallum Cancer Centre, 2014).

- Test: 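Genes whose loss kills vorinostat-resistant colon cancer cells under vorinostat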 (primary screen)
- System: human HCT116-VR colon cancer cells, selected for vorinostat resistance
- Reagents: siRNA pool against human genes, 40 nM siRNA pool
- Duration: vorinostat for 24 h, read-out about 72 h after transfection
- Treatment: vorinostat at 2.5 µM final
- Measured: 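Cell viability by CellTiter-Fluor and caspase 3/7 activity by luminescence, each scaled to mock wells per plate, duplicates averaged, then robust z-scored over all plates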
- Reading the numbers: viability robust z-score: higher = more viable cells than screen typical; caspase robust z-score: higher = more caspase 3/7 activity than screen typical
- Rule for the call: 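Hits are knock-downs in viability class RV1/RV2 or caspase class CA1/CA2, excluding ones that killed cells in the no-drug cell-count arm; hits then retested with single siRNAs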
The whole screen tested about 18,000 reagents; below is a part drawn at random. Over the whole deposit, 450 (2.5%) got an active call. 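Single biological run; no consistent viability z cut-off exists, so the class columns, not z-scores, define the calls.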 Entries without a mark were called inactive. Reagents against one gene are numbered here.

| Gene | pool no. | viability hit class | caspase hit class | viability robust z-score | caspase robust z-score |
| --- | --- | --- | --- | --- | --- |
| GRIN3B | 1 | no change | no change | -0.15 | 0.24 |
| CRYL1 | 1 | no change | no change | 0.76 | -0.09 |
| CCL25 | 1 | RV2 (reduced viability) (active) | no change | -3.72 | 2.7 |
| ANXA7 | 1 | no change | no change | -0.42 | -0.58 |
| LRRC74A | 1 | no change | no change | 0.86 | -0.97 |
| TMPRSS3 | 1 | no change | no change | -0.12 | -0.44 |
| RAB40C | 1 | no change | no change | 0.23 | -0.78 |
| TEX2 | 1 | no change | no change | -0.9 | -0.31 |
| HS3ST6 | 1 | no change | no change | -0.77 | -0.52 |
| ISCA2 | 1 | no change | no change | 0.79 | 3.12 |
| SPDYA | 1 | no change | no change | 0.01 | -0.07 |
| LSMEM1 | 1 | no change | no change | -0.46 | -1.05 |
| FBXO8 | 1 | no change | no change | -1.16 | -1.16 |
| UCN | 1 | no change | no change | -1.19 | 2.02 |
| GLB1L2 | 1 | no change | no change | -3.17 | 3.71 |
| GUCY2F | 1 | no change | no change | 1.46 | -0.66 |
| CENPU | 1 | no change | no change | -0.37 | -0.08 |
| FAM50B | 1 | no change | no change | -0.84 | 3.38 |
| KRT16 | 1 | no change | no change | 1.57 | -0.72 |
| ZNRD2 | 1 | no change | no change | 0.31 | 2.55 |
| MRPS18B | 1 | no change | no change | -0.01 | -0.74 |
| TMEM270 | 1 | no change | no change | -0.66 | 2.5 |
| CDH1 | 1 | no change | no change | 1.49 | 0.08 |
| PEAK3 | 1 | no change | no change | 0.33 | 1.21 |
| ASIC4 | 1 | no change | no change | -0.33 | -0.93 |
| EXOC2 | 1 | no change | no change | 0 | -0.51 |
| SLC17A9 | 1 | no change | no change | -0.21 | -0.36 |
| FCER1G | 1 | no change | no change | 0.34 | -0.21 |
| GALNTL5 | 1 | no change | no change | 0.88 | -0.35 |
| MPC2 | 1 | no change | no change | -0.38 | 0.08 |
| TSGA10 | 1 | no change | no change | -0.43 | 0.94 |
| HSD3B7 | 1 | no change | no change | -2.41 | 2.04 |
| FSIP2 | 1 | no change | no change | 0.97 | -0.22 |
| FSIP2 | 2 | no change | no change | -0.52 | -0.21 |
| GH1 | 1 | no change | no change | 0.97 | -0.43 |
| NKX2-2 | 1 | no change | no change | -1.38 | 1.82 |
| BPIFB3 | 1 | no change | no change | 0.49 | 0.05 |
| AFP | 1 | no change | no change | 1.3 | 1.3 |
| C19orf48P | 1 | no change | no change | -0.09 | 1.24 |
| ARSG | 1 | no change | no change | -1.27 | -0.15 |
| PREB | 1 | no change | no change | 0.84 | -0.88 |

Targets listed so far whose target name starts with M or m:
| Gene | pool no. | viability hit class | caspase hit class | viability robust z-score | caspase robust z-score |
| --- | --- | --- | --- | --- | --- |
| MRPS18B | 1 | no change | no change | -0.01 | -0.74 |
| MPC2 | 1 | no change | no change | -0.38 | 0.08 |

Additional reagents follow.
| Gene | pool no. | viability hit class | caspase hit class | viability robust z-score | caspase robust z-score |
| --- | --- | --- | --- | --- | --- |
| PNN | 1 | RV2 (reduced viability) (active) | CA2 (caspase activation) | -3 | 5.88 |
| PPP1R1B | 1 | no change | no change | 0.92 | -0.57 |
| YES1 | 1 | no change | no change | 1.46 | -0.68 |
| GATAD2B | 1 | no change | no change | -1.37 | -0.79 |
| RBM38 | 1 | no change | no change | -0.4 | 0.68 |
| SRPK3 | 1 | no change | no change | 0.32 | 1.48 |
| CTTNBP2NL | 1 | no change | no change | 0.47 | 2.24 |
| LCE2D | 1 | no change | no change | 0.6 | 2.39 |
| ROBO4 | 1 | no change | no change | 1.13 | 2.12 |
| CATSPERB | 1 | no change | no change | 1.26 | 0.17 |
| TNIP2 | 1 | no change | no change | -0.36 | 1.56 |
| SLC25A11 | 1 | no change | no change | -1.82 | 1.82 |
| ASNSD1 | 1 | no change | no change | -0.55 | 0.48 |
| PRKCSH | 1 | no change | no change | -0.06 | -1.07 |
| CLDN9 | 1 | no change | no change | 1.77 | 3.44 |
| RBM28 | 1 | no change | no change | -0.44 | 0.58 |
| DBNDD2 | 1 | no change | no change | 0.82 | 0.43 |
| CLDN1 | 1 | no change | no change | 0.96 | 0.58 |
| ESRRA | 1 | no change | no change | -0.16 | -0.5 |
| RING1 | 1 | no change | no change | -0.34 | 1.77 |
| ATP7B | 1 | no change (active) | CA1 (caspase activation) | -0.92 | 5.55 |
| CCDC38 | 1 | no change | no change | -0.4 | 0.22 |
| LPAR5 | 1 | no change | no change | -1.97 | -0.32 |
| LINC02908 | 1 | no change | no change | -1.04 | -0.57 |
| ARGFX | 1 | no change | no change | 0.34 | 0.54 |
| ARHGEF16 | 1 | no change | no change | 1.21 | -0.57 |
| FGF3 | 1 | no change | no change | 0.35 | 0.37 |
| SMARCD2 | 1 | no change (active) | CA1 (caspase activation) | -1.04 | 5.98 |
| CREB5 | 1 | no change | no change | -0.62 | 1.27 |
| RP9 | 1 | no change | no change | 0.3 | 0.23 |
| ECI1 | 1 | no change | no change | -0.05 | 3.23 |
| PCDHB11 | 1 | no change | no change | -0.66 | 1.62 |
